PubChem BioAssay (NCATS)
Values joined by “and” are separate entries in the source; they are usually repeats but may differ in a detail not shown here. Equal entries are not always repeated. The list shows a part of the results. These are further read-outs of the screen, such as a control signal, another cell line or another target. No call is given for them. The list favours compounds with an active or inconclusive main result. For part of these data: The note in brackets gives the kind of curve behind each potency; many fits are weak.

What was measured:
[1] = qHTS Assay for Inhibitors of PDE-IV (AID 607); details: HEK293 ACTOne CNG channel cells, membrane potential fluorescence; measured here: parental cell counter-screen
How it was run: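 The readout is membrane depolarisation from a cAMP-sensing CNG channel, detected with a potential dye at ex 535/em 590. Cells were HEK293-derived (endogenous PDE-IV) at 1000 cells/well, titrated up to 22.9 uM final.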

[2] = qHTS Assay for Lipid Storage Modulators (AID 1519); details: Drosophila S3 cells, BODIPY lipid droplet/cell ratio, laser cytometry, cells loaded with oleic acid
How it was run: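 Cells seeded at 5,000 per well were treated with compounds over a concentration series and loaded with oleic acid (400 uM, as added). Lipid droplet fluorescence (488 nm excitation, 500-530 nm channel) was read by laser-scanning cytometry and normalized to 20 uM Triacsin C.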

[3] = S16 Schwann cell PMP22 intronic element beta-lactamase assay (AID 624044); details: S16 rat Schwann cells, PMP22 element beta-lactamase FRET, 24 h
How it was run: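 Rat S16 Schwann cells with beta-Lac driven by a PMP22 intronic element, compound-treated 24 h at 37 °C. LiveBLAzer FRET B/G read: 460 nm normalized to potassium clavulanate vs DMSO; 535 nm FRET as viability; concentration-effect curves classified.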

[4] = qHTS Assay for Modulators of Human Peripheral Myelin Protein 22 (PMP22) Expression/Activity (AID 1967); details: Cell-based PMP22 reporter, dual-color luciferase ratio; measured here: red reporter channel AC50; EF-alpha promoter control reporter in MSC80 mouse Schwann cells
How it was run: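 Mouse MSC80 Schwann line, Pmp22 promoter–CBG68 reporter, EF-alpha–CBR internal control. 24h compound exposure, 37 °C/5% CO2, DMEM + 10% FBS. Readout: corrected green/red luminescence ratio, normalized to untreated cells; concentration-response curves fitted and classified.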

[5] = qHTS assay for small molecule antagonists of androgen receptor signaling (AID 588516); details: AR-UAS-bla HEK293, beta-lactamase ratio, antagonist mode, 16 h; measured here: W460 blue channel fit
How it was run: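 Antagonist mode: inhibition of R1881-stimulated (10 nM final) bla reporter in GeneBLAzer AR HEK 293 cells, 16 h at 37C, compounds titrated. IC50 and efficacy from Hill-equation fits of 405/460–530 nm FRET ratios.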

[6] = qHTS assay for small molecule antagonists of vitamin D receptor signaling (AID 588541); details: HEK293T VDR-UAS-bla, beta-lactamase ratio, antagonist mode; measured here: W460 blue channel (cell viability)
[7] = qHTS assay for small molecule agonists of retinoid X receptor alpha signaling (AID 588544); details: HEK293T RXRa-UAS-bla, beta-lactamase reporter, 18 h; 530 nm emission
[8] = qHTS assay for small molecule antagonists of retinoid X receptor alpha signaling (AID 588546); details: HEK293T RXRa-UAS-bla, beta-lactamase ratio, antagonist mode; measured here: W530 green channel, cytotoxicity proxy;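 also: cells stimulated with 9-cis-retinoic acid as agonist; % is scaled to controls: 0 for no effect and ±100 for the full control effect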
How it was run: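 Beta-lactamase reporter inhibition, read as CCF4 fluorescence ratio (ex 405, em 460/530 nm) after 2 h at RT. HEK293T UAS-bla cells, 2500/well, were stimulated with 9-cis-RA at 500 or 100 nM final alongside test compound for 18 h at 37 C.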

[9] = qHTS for identification of novel therapeutic agents for treatment of microphthalmiaassociated transcription factor (MiT) renal cell carcinoma (RCC) (AID 1963991); details: CellTiter-Glo, 48 h; for z-score: stronger effect = lower value;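 as to z-score: curves scaled with 100% = DMSO viability and 0% = empty wells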
How it was run: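 UOK109/UOK124/UOK145 (TFE3 fusions, three partners); 500 cells/well; MIPE v4.0, 1912 cpds, 11 conc.; 48 h, 37 C; CellTiter-Glo, 15 min RT; lum. Norm.: DMSO 100%, empty 0%.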

[10] = measured here: cell count channel max response
[11] = measured here: cell number channel AC50
[12] = measured here: lipid channel max response
[13] = measured here: lipid (BODIPY) channel AC50
[14] = measured here: 460 nm blue channel

For `CCCn1c(C)c(C(=O)c2cccc3ccccc23)c2ccccc21`, which AC50 [1] is on record?
The AC50 was 15.8 µM [rising, partial curve].

What about the max response [2, 10] of the same compound?
Its max response is 85.3%.

What about the AC50 [2, 11] of the same compound?
Its AC50 is 12.6 µM [rising, partial curve, poor fit].

And the max response [2, 12]?
The max response was 109%.

Which max response [2, 10] does the source give for `Clc1cccc(N2CCNCC2)c1` here?
The max response was 0.7% and -18.8%.

And the AC50 [2, 11]?
The AC50 was 0.398 µM [falling, full curve, poor fit].

And the AC50 [2, 13]?
The AC50 was 15.8 µM [rising, single point] and 398 nM [falling, full curve, poor fit].

What about the max response [2, 12] of the same compound?
The max response was 0.848% and -15.6%.

What about the AC50 [3, 14] of the same compound?
Its AC50 is 2.51 µM [falling, full curve, poor fit].

Which results are given for `Cc1cccc(C)c1NC1=NCCCS1`?
max response [2, 10]: 28.5%; AC50 [2, 13]: 39.8 µM [rising, single point]; max response [2, 12]: 30.3%; AC50 [4]: 84.9 µM [falling, single point]

Which max response [2, 10] does the source give for `Brc1c(NC2=NCCN2)ccc2nccnc12` here?
The max response was 30.9% and -24.1%.

What about the AC50 [2, 11] of the same compound?
The AC50 was 7.94 µM [rising, full curve, poor fit] and 12.6 µM [falling, partial curve, poor fit].

What about the AC50 [2, 13] of the same compound?
The AC50 was 12.6 µM [rising, partial curve, poor fit].

What about the max response [2, 12] of the same compound?
The max response was 41% and -24.1%.

What about the AC50 [3, 14] of the same compound?
The AC50 was 22.4 µM [rising, single point].

For `COc1cccc2c1cc([N+](=O)[O-])c1c(C(=O)O)cc3c(c12)OCO3`, which AC50 [1] is on record?
The AC50 was 12.6 µM [rising, partial curve].

And the max response [2, 10]?
The max response was 29.3% and 79.5%.

And the AC50 [2, 11]?
The AC50 was 35.5 µM [rising, partial curve, poor fit].

What about the AC50 [2, 13] of the same compound?
The AC50 was 35.5 µM [rising, single point] and 35.5 µM [rising, partial curve, poor fit].

What about the max response [2, 12] of the same compound?
Its max response is 53.9% and 92%.

With `CC(C)N(C(=O)CCl)c1ccccc1` as the compound, how does the max response [2, 10] read?
Its max response is 14.3%.

What about the AC50 [2, 13] of the same compound?
Its AC50 is 20 µM [falling, single point].

What about the max response [2, 12] of the same compound?
The max response was -58.8%.

What about the AC50 [5] of the same compound?
The AC50 was 50.1 µM [falling, partial curve, poor fit].

And the AC50 [6]?
The AC50 was 39.8 µM [falling, partial curve, poor fit].

And the max response [7]?
Its max response is 60.9%.

What about the max response [8] of the same compound?
Its max response is 40.8%.

For `COc1ccc(C(=O)N2CCCC2=O)cc1`, which max response [2, 10] is on record?
The max response was 24.1% and 27.3%.

What about the AC50 [2, 13] of the same compound?
The AC50 was 31.6 µM [rising, single point] and 39.8 nM [rising, full curve, poor fit].

And the max response [2, 12]?
Its max response is 36.1% and 42.1%.

What about the AC50 [3, 14] of the same compound?
The AC50 was 0.178 µM [falling, full curve, poor fit].

What about the AC50 ([3]; measured here: 530 nm viability channel) of the same compound?
The AC50 was 0.316 µM [falling, full curve].

And the z-score ([9]; TFE3-RCC UOK109 viability, measured here: UOK109 Z-AUC)?
The z-score was 0.37.

What about the z-score ([9]; TFE3-RCC viability, measured here: UOK124 Z-AUC) of the same compound?
Its z-score is 0.152.

What about the z-score ([9]; TFE3-RCC viability, measured here: UOK145 Z-AUC) of the same compound?
The z-score was 0.348.

What about the AC50 ([9]; TFE3-RCC viability, measured here: UOK145 cell viability) of the same compound?
The AC50 was 18.7 µM [falling, partial curve, poor fit].
